These are yes or no findings as the source states them, for the method shown. Binding seen in cells or lysates may run through a third protein. Some results given as binding are weak or reduced against the parent protein; the word gives no strength.
What was measured:
Exo84-HA = Exo84-HA (UniProt Q8IYI6); assay: co-IP; HEK293T cells transfected with control or STK38 siRNAs, then with vectors; Exo84-HA immunoprecipitated with anti-HA; basal or EBSS for 90 min; RalB or Beclin1 detected by western blotting
[1] = target: endogenous Beclin1 (human (endogenous in HEK293)) (UniProt Q14457); assay: co-IP; endogenous proteins, HEK293 whole-cell extracts; Beclin1 immunoprecipitated with anti-Beclin1 (sc-10087), STK38 detected by western blotting; controls beads only and control IgG
Beclin1-HA = Beclin1-HA (UniProt Q14457); assay: co-IP; HEK293T cells co-transfected with Beclin1-HA and myc-STK38 variants; Beclin1-HA immunoprecipitated with anti-HA (12CA5), STK38 detected with anti-myc

Protein sequences, listed by entry. Tags and fused reporters are not part of them. Lines headed by an entry give the natural chain unless they say otherwise; changes in a name come on top.
UniProt Q8IYI6: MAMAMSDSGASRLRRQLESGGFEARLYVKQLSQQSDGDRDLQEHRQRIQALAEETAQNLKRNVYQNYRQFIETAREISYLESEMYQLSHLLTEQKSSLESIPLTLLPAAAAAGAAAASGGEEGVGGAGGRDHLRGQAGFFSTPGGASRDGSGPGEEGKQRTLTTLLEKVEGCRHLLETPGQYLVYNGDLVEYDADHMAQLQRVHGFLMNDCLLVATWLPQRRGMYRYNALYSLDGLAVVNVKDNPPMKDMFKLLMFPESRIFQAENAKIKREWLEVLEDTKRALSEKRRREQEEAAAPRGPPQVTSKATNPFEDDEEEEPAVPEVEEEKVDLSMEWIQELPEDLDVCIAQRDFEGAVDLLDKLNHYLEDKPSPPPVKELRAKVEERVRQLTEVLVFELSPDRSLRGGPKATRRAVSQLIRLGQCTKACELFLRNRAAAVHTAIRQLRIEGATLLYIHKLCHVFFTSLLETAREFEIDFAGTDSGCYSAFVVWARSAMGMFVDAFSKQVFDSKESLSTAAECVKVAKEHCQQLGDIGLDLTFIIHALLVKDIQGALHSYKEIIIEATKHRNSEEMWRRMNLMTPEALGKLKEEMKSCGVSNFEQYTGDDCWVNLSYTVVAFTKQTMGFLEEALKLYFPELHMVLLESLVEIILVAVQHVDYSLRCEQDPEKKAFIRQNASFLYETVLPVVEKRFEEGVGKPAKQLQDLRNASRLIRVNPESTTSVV
UniProt Q14457: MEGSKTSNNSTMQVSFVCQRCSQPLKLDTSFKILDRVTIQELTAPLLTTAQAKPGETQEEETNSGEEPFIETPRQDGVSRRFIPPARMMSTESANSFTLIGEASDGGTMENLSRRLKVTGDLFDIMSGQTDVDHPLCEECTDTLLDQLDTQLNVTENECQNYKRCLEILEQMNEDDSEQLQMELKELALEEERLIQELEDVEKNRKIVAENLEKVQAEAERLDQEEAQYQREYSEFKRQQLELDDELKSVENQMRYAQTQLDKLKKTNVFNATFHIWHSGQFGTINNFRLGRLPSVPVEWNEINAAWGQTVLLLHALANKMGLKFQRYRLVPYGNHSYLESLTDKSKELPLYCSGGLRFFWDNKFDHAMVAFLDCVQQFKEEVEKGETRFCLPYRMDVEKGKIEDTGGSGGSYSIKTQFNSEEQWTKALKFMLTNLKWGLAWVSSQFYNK
UniProt Q15208: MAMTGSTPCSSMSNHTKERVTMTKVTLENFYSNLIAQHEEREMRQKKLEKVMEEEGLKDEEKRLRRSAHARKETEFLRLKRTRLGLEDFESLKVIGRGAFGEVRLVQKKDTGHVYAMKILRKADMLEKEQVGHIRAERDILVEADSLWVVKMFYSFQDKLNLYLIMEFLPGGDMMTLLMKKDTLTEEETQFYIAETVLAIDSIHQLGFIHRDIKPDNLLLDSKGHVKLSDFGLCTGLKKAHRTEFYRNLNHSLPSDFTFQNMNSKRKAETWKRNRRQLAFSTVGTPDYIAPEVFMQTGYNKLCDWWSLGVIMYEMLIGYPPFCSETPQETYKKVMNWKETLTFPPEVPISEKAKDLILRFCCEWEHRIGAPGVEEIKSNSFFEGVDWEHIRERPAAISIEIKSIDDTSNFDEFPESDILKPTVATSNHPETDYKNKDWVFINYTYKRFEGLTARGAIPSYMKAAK

binding (Beclin1-HA) | Substance | also measured
binds | myc-STK38 (83-465), lacking the N-terminal regulatory (NTR) domain (from UniProt Q15208 83-465) (domain or fragment) | –
binds | myc-STK38 D230N (kinase-dead, Mg-binding mutant) (from UniProt Q15208 1-465) (enzyme) | –
binds | myc-STK38 Y31A (MOB1A/B-binding mutant) (from UniProt Q15208 1-465) (enzyme) | –
binds | myc-STK38 wild-type (from UniProt Q15208 1-465) (enzyme) | –

The next lines start with the substance.

Substance | binding (Beclin1-HA) | also measured
Beclin1 (co-expressed with Exo84-HA, Figure 5C) (from UniProt Q14457 1-450) | – | binding (Exo84-HA): binds
endogenous STK38 (from UniProt Q15208 1-465) (enzyme) | – | binding [1]: binds
myc-STK38 K118R (kinase-dead, ATP-binding mutant) (from UniProt Q15208 1-465) (enzyme) | binds | –
myc-STK38 R41A (MOB1A/B-binding mutant) (from UniProt Q15208 1-465) (enzyme) | binds | –
